# Library screening results

Measurements from “University of Dundee, Small-Polar-MMV Screening Library” (2021), ChEMBL document CHEMBL3988442.

The filed quantity is “Percent Effect” (%).
How 0% and 100% were set is not recorded. Most values in the screen are low, and negative values occur.
The compounds are a random part of those screened.
Two or more numbers in one place are separate tests of the same structure; such repeats can differ widely.

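Viability assay of Plasmodium falciparum sporozoites; the read-out is not stated. The concentration is filed as 10 mM, unlikely as a test dose, so the dose is not known. Direction is inferred from retests: higher values go with lower viability. Strong results were mostly tested again. Of about 34,000 compounds tested this way, about 280 (0.84%) reached 50% or more in at least one test.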

For Cc1cc(C)c2nc(CN3CCC(CN)CC3)cc(O)c2c1 the result was -17.09%. For CN(C)C(=O)CN1CCC2(CCCN(Cc3cccs3)C2)C1=O.O=C(O)C(F)(F)F (configuration not stated) the result was 6.51%. For Cn1ccnc1CN1C[C@@H](CN2CCCCC2)[C@@H](CO)C1 the result was 9.478%. [H][C@]12CC[C@@]3(N=C(CC)NC3=O)[C@@]1([H])CN(C(=O)NCc1cccc(F)c1)C2 read -3.924%. With O=C(O)C(F)(F)F.[H][C@@]12CCN(c3ccc(C)nn3)[C@]1([H])CC[C@H](C(=O)NCc1ccco1)O2 the screen gave -1.454%. O=C(NCc1noc(C2CCCO2)n1)c1cn2ccsc2n1 (configuration not stated) read 0.4615%. With [H][C@@]12CCNC[C@]1([H])N(C(=O)N1CCCC1)C2 the screen gave 8.725%. Result for COc1cccc(C2CCCN2C(=O)c2ccc(=O)n(C)c2)c1 (configuration not stated) was -11.01%.

O=C(CCc1c(F)cccc1F)N1CCCCC1Cn1cccn1 (configuration not stated) read -9.83%. With CC(=O)Nc1ccc(CCC2(NC(=O)C3CCCO3)CCCCC2)cn1 (configuration not stated) the screen gave 2.671%. CN1CCN(Cc2ccc(-c3ccc(-c4ccn[nH]4)cc3)nc2)CC1 read 56.12% & 32.6%. For COc1ccc(NC(=O)NCCCn2nc3ccccn3c2=O)cc1 the result was -3.606%. CNc1cc(N2CCCC2CNCc2c[nH]nc2C(C)(C)C)ncn1 (configuration not stated) gave 3.833%. [H][C@]12CCN(C(=O)c3cc(C)oc3C)C[C@@]1([H])OCCN(S(C)(=O)=O)C2 read -0.6857%. Cc1ccc(-c2cc(CNC(=O)N3CCCN(C)CC3)on2)cc1 read -10.58% & 1.569% & -18.36%. For O=C(O)C(F)(F)F.[H][C@]12CCCN(Cc3nccs3)[C@@]1([H])CN(C(=O)c1ccco1)C2 the result was 3.893%.

For Cn1nccc1C(=O)N1CCOC(Cc2ccc(Cl)cc2)C1 (configuration not stated) the result was 9.082%. For CNC(=O)c1ccc(CN2CCN(C3=NCC(C)(C)S3)CC2)cc1 the result was -2.289%. O=C(O)C(F)(F)F.[H][C@]12CCN(CCOC)[C@@]1([H])CC[C@H](COCC(=O)N1CCCC1)O2 gave -13%. CSCCC(CO)NC(=O)c1sc(-c2ccccc2Cl)nc1C (configuration not stated) read 1.096%. Result for [H][C@]12CC[C@]([H])(C1)N(C(=O)c1cccnc1-c1cc(OC)ccc1F)C2 was 0%. CC(C)Oc1ccc(CSc2nnc(CN3CCCC3=O)o2)cc1 read -4.077%. With CC(c1nc(C2CC2)no1)N1CCN(Cc2ccsc2)CC1 (configuration not stated) the screen gave 1.288%. Result for [H][C@@]12CCCCCN(C(C)=O)[C@@]1([H])[C@H](c1cccc(F)c1)CN2C(=O)C1CC1 was 8.911%.

CN(C)c1ncnc2c1CCN(CC1CCCC1)CC2.O=C(O)C(F)(F)F read -1.6%. With O=C(O)C(F)(F)F.c1nc2c(c(-c3ccsc3)n1)CCN(Cc1ccoc1)CC2 the screen gave 10.6%. With CN1CC(=O)N(c2cccnc2)CC12CCN(C(=O)C1CCCCC1)C2.O=C(O)C(F)(F)F.O=C(O)C(F)(F)F (configuration not stated) the screen gave 5.952%. Result for O=C(Nc1cc(-c2ccncc2)no1)C1CC1 was -13.93%. For Cn1cc(CN2CCCC3(CCN(Cc4ccncc4)C3=O)C2)cn1 (configuration not stated) the result was 6.914%. For CCS(=O)(=O)NCC1CCN(c2cnccn2)CC1 the result was 11.19%. c1ccc(-c2cnc(CN3CCCC3Cn3cccn3)o2)cc1 (configuration not stated) gave 0.4044%. For CC(C)CN1CCC2(CC1)C(=O)Nc1ccc(C(=O)NC(C)C)cc12.O=C(O)C(F)(F)F the result was -5.877%.

Result for Cn1ccnc1C(NCc1ccccc1)c1ccc(F)cc1 (configuration not stated) was 6.881%. With CN1CCc2c(C#N)c(NCc3ccncc3)n3cnnc3c2C1 the screen gave -6.812%. CC(C)c1nnc2n1CCN(CCS(=O)(=O)c1ccccc1)C2 read 1.434%. Cc1cc(-c2cnc(N3CCC(O)CC3)nc2C(C)C)on1 read 3.85%. O=C(O)C(F)(F)F.O=C(c1cscn1)N1CC[C@]2(C[C@@H](OCCN3CCCC3)CO2)C1 gave -4.037%. Clc1cnccc1N1CCCC2(CCCOC2)C1 (configuration not stated) read -11.28%. c1ccc(CCNC2CCc3ncnn3C2)nc1 (configuration not stated) gave -1.778%. For [H][C@@]12C[C@H](C(=O)Nc3cccnc3)[C@@]([H])(CN(Cc3ccc(C)cc3)C1)O2 the result was -11.77%.

Result for O=C(COCC1CC1)N1CCN(C(=O)Cc2ccccn2)CC1 was -3.429%. For Cc1cc(C)n(C2CN(CC(=O)N3CCOCC3)C2)n1 the result was -19.57%. With O=C(c1ccc2nncn2c1)N1CCCCC1Cn1cccn1 (configuration not stated) the screen gave 0.8544%. Cc1ccc(CC(=O)N2CCOCC2c2ncon2)cc1 (configuration not stated) read 5.474%. With CN(C)c1ncccc1CNS(=O)(=O)c1ccccc1F the screen gave 15.11%. Result for CC1CCN(C(=O)CSCc2noc(C(C)C)n2)CC1 was -9.878%. For CS(=O)(=O)N1CC(c2nc(N)ncc2-c2ccc(F)cc2)C1 the result was -5.877%. Cn1ncc2ccc(C3CCCN(C(=O)Cc4cccs4)C3)nc21 (configuration not stated) read 10.94%.

With Cc1nc(CN2CCCCC2Cn2cccn2)nc2ccccc12 (configuration not stated) the screen gave 33.96% & 41.89%. CCc1ccc(CN2CCC3(CC2)CNC(=O)CO3)o1.O=C(O)C(F)(F)F gave -16.91%. With CC(C)NC(=O)C1CN(C(=O)Nc2cccc(F)c2)CC12CCOCC2 (configuration not stated) the screen gave -4.875%. For O=C(O)CC(O)(CC(=O)O)C(=O)O.[H][C@@]12CC[C@@](O)(c3ccc(C)cn3)[C@]1([H])CN(Cc1cnc(OC)nc1)C2 the result was 8.994%. O=C(CCN1CCc2ccccc21)N1C[C@@H](O)[C@H](N2CCCC2)C1 gave -1.963%. Cc1nc(CC(=O)N2CCC(c3ccn4nccc4n3)CC2)cs1 gave 5.58%. Cc1cnc(N2CCC3(CC2)COCCN(C(C)C)C3)nc1.O=C(O)C(F)(F)F read -0.2555%. With CC(C)c1cc(N2CCC(C(C)N3CCCC3)CC2)n2nccc2n1 (configuration not stated) the screen gave -10.03%.

Result for CS(=O)(=O)NCC(=O)NC1CCc2nccn2C1 (configuration not stated) was -148.7%.

Some entries from above, unchanged:

- CC(C)CN1CCC2(CC1)C(=O)Nc1ccc(C(=O)NC(C)C)cc12.O=C(O)C(F)(F)F | -5.877%
- CCc1ccc(CN2CCC3(CC2)CNC(=O)CO3)o1.O=C(O)C(F)(F)F | -16.91%
- Cc1ccc(-c2cc(CNC(=O)N3CCCN(C)CC3)on2)cc1 | -10.58% & 1.569% & -18.36%